# This is one part of the list.
# B1: TIM-1 (Mus musculus), AAL35774 (protein)
# chain: MNQIQVFISGLILLLPGAVDSYVEVKGVVGHPVTLPCTYSTYRGITTTCWGRGQCPSSACQNTLIWTNGHRVTYQKSSRYNLKGHISEGDVSLTIENSVESDSGLYCCRVEIPGWFNDQKVTFSLQVKPEIPTRPPTRPTTTRPTATGRPTTISTRSTHVPTSIRVSTSTPPTSTHTWTHKPEPTTFCPHETTAEVTGIPSHTPTDWNGTVTSSGDTWSNHTEAIPPGKPQKNPTKGFYVGICIAALLLLLLVSTVAITRYILMKRKSASLSVVAFRVSKIEALQNAAVVHSRAEDNIYIVEDRP
# Tests used:
# Assay in all cases: glycan array binding signal (z-score within array); higher = stronger binding
# Settings in all cases: glycan notation: IUPAC condensed, linker removed
# [1] = biological target: Gal(a1-3)GlcNAc
# How it was run: (§1)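 Glycan array data came from 3228 arrays in the Consortium for Functional Glycomics database, and only arrays with an available protein sequence were kept. Glycan names were put into IUPAC-condensed notation, and columns mapping to the same glycan were averaged. The binding signal is a within-array Z-score, averaged across arrays of one protein sequence run at different concentrations or buffers and across linkers. A negative Z-score can be read as non-binding.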
# [2] = biological target: Gal(a1-3)[Gal(a1-4)]Gal(b1-4)GlcNAc
# How it was run: as §1
# [3] = biological target: Gal(a1-4)Gal(b1-4)Gal
# How it was run: as §1
# [4] = biological target: Gal(a1-4)Gal(b1-4)GalNAc
# How it was run: as §1
# [5] = biological target: Gal(a1-4)Gal(b1-4)Glc
# How it was run: as §1
# [6] = biological target: Gal(a1-4)Gal(b1-4)GlcNAc
# How it was run: as §1
# [7] = biological target: Gal(a1-4)GlcNAc
# How it was run: as §1
# [8] = biological target: Gal(a1-6)Glc
# How it was run: as §1
# [9] = biological target: Gal(b1-2)Gal
# How it was run: as §1
# [10] = biological target: Gal(b1-3)Gal
# How it was run: as §1
# [11] = biological target: Gal(b1-3)GalNAc
# How it was run: as §1
# [12] = biological target: Gal(b1-3)GalNAc(b1-3)Gal(a1-4)Gal(b1-4)Glc
# How it was run: as §1
# [13] = biological target: Gal(b1-3)GalNAc(b1-3)Gal(b1-4)Glc
# How it was run: as §1
# [14] = biological target: Gal(b1-3)GalNAc(b1-3)Gal(b1-4)GlcNAc
# How it was run: as §1
# [15] = biological target: Gal(b1-3)GalNAc(b1-4)Gal(b1-4)Glc
# How it was run: as §1
# [16] = biological target: Gal(b1-3)GalNAc(b1-4)[Neu5Ac(a2-3)]Gal(b1-4)Glc
# How it was run: as §1
# [17] = biological target: Gal(b1-3)GlcNAc
# How it was run: as §1
# [18] = biological target: Gal(b1-3)GlcNAc(b1-3)Gal(b1-3)GlcNAc
# How it was run: as §1
# [19] = biological target: Gal(b1-3)GlcNAc(b1-3)Gal(b1-4)Glc
# How it was run: as §1
# [20] = biological target: Gal(b1-3)[Fuc(a1-4)]GlcNAc
# How it was run: as §1
# [21] = biological target: Gal(b1-3)[Fuc(a1-4)]GlcNAc(b1-3)Gal(b1-3)[Fuc(a1-4)]GlcNAc
# How it was run: as §1
# [22] = biological target: Gal(b1-3)[Fuc(a1-4)]GlcNAc(b1-3)Gal(b1-4)GlcNAc
# How it was run: as §1
# [23] = biological target: Gal(b1-3)[Fuc(a1-4)]GlcNAc(b1-3)Gal(b1-4)[Fuc(a1-3)]GlcNAc
# How it was run: as §1
# [24] = biological target: Gal(b1-3)[GlcNAc(b1-6)]GalNAc
# How it was run: as §1
# [25] = biological target: Gal(b1-3)[GlcNAc(b1-6)]GlcNAc
# How it was run: as §1
# [26] = biological target: Gal(b1-3)[Neu5Ac(a2-6)]GalNAc
# How it was run: as §1
# [27] = biological target: Gal(b1-3)[Neu5Ac(a2-6)]GlcNAc
# How it was run: as §1
# [28] = biological target: Gal(b1-3)[Neu5Ac(a2-6)]GlcNAc(a1-4)Gal(b1-4)Glc
# How it was run: as §1
# [29] = biological target: Gal(b1-3)[Neu5Ac(a2-6)]GlcNAc(b1-4)Gal(b1-4)Glc
# How it was run: as §1
# [30] = biological target: Gal(b1-3)[Neu5Ac(b2-6)]GalNAc
# How it was run: as §1
# [31] = biological target: Gal(b1-3)[Neu5Ac(b2-6)]GlcNAc
# How it was run: as §1
# [32] = biological target: Gal(b1-4)GalNAc(a1-3)[Fuc(a1-2)]Gal(b1-4)GlcNAc
# How it was run: as §1
# [33] = biological target: Gal(b1-4)GalNAc(b1-3)[Fuc(a1-2)]Gal(b1-4)GlcNAc
# How it was run: as §1
# [34] = biological target: Gal(b1-4)Glc
# How it was run: as §1
# [35] = biological target: Gal(b1-4)Glc6S
# How it was run: as §1
# [36] = biological target: Gal(b1-4)GlcNAc
# How it was run: as §1
# [37] = biological target: Gal(b1-4)GlcNAc(b1-2)Man(a1-3)[Gal(b1-4)GlcNAc(b1-2)Man(a1-6)]Man(b1-4)GlcNAc(b1-4)GlcNAc
# How it was run: as §1
# [38] = biological target: Gal(b1-4)GlcNAc(b1-3)Gal(b1-3)GlcNAc
# How it was run: as §1
# [39] = biological target: Gal(b1-4)GlcNAc(b1-3)Gal(b1-4)Glc
# How it was run: as §1
# [40] = biological target: Gal(b1-4)GlcNAc(b1-3)Gal(b1-4)GlcNAc
# How it was run: as §1
# [41] = biological target: Gal(b1-4)GlcNAc(b1-3)Gal(b1-4)GlcNAc(b1-3)Gal(b1-4)GlcNAc
# How it was run: as §1
# [42] = biological target: Gal(b1-4)GlcNAc(b1-3)Gal(b1-4)[Fuc(a1-3)]GlcNAc(b1-3)Gal(b1-4)[Fuc(a1-3)]GlcNAc
# How it was run: as §1
# [43] = biological target: Gal(b1-4)GlcNAc(b1-3)GalNAc
# How it was run: as §1
# [44] = biological target: Gal(b1-4)GlcNAc(b1-3)[Gal(b1-4)GlcNAc(b1-6)]GalNAc
# How it was run: as §1
# [45] = biological target: Gal(b1-4)GlcNAc(b1-6)GalNAc
# How it was run: as §1
# [46] = biological target: Gal(b1-4)GlcNAc(b1-6)[Gal(b1-3)]GalNAc
# How it was run: as §1
# [47] = biological target: Gal(b1-4)GlcNAc(b1-6)[Gal(b1-3)]GlcNAc
# How it was run: as §1
# [48] = biological target: Gal3S(b1-3)GalNAc
# How it was run: as §1
# [49] = biological target: Gal3S(b1-3)GlcNAc
# How it was run: as §1
# [50] = biological target: Gal3S(b1-3)[Fuc(a1-4)]GlcNAc
# How it was run: as §1
# [51] = biological target: Gal3S(b1-4)Glc
# How it was run: as §1
# [52] = biological target: Gal3S(b1-4)Glc6S
# How it was run: as §1
# [53] = biological target: Gal3S(b1-4)GlcNAc
# How it was run: as §1
# [54] = biological target: Gal3S(b1-4)GlcNAc6S
# How it was run: as §1
# [55] = biological target: Gal3S6S(b1-4)GlcNAc
# How it was run: as §1
# [56] = biological target: Gal3S6S(b1-4)GlcNAc6S
# How it was run: as §1
# [57] = biological target: Gal4S(b1-4)GlcNAc
# How it was run: as §1
# [58] = biological target: Gal4S6S(b1-4)GlcNAc
# How it was run: as §1
# [59] = biological target: Gal6S(b1-4)Glc
# How it was run: as §1
# [60] = biological target: Gal6S(b1-4)Glc6S
# How it was run: as §1
# [61] = biological target: Gal6S(b1-4)GlcNAc
# How it was run: as §1
# [62] = biological target: GalNAc(a1-3)Gal
# How it was run: as §1
# [63] = biological target: GalNAc(a1-3)GalNAc
# How it was run: as §1
# [64] = biological target: GalNAc(b1-3)Gal(a1-4)Gal(b1-4)GlcNAc
# How it was run: as §1
# [65] = biological target: GalNAc(b1-3)GalNAc
# How it was run: as §1
# [66] = biological target: GalNAc(b1-4)GlcNAc
# How it was run: as §1
# [67] = biological target: Glc(a1-4)Glc
# How it was run: as §1
# [68] = biological target: Glc(a1-6)Glc(a1-6)Glc
# How it was run: as §1
# [69] = biological target: Glc(b1-4)Glc
# How it was run: as §1
# [70] = biological target: Glc(b1-6)Glc
# How it was run: as §1
# [71] = biological target: GlcA(b1-3)Gal
# How it was run: as §1
# [72] = biological target: GlcA(b1-6)Gal
# How it was run: as §1
# [73] = biological target: GlcNAc(a1-3)Gal(b1-4)GlcNAc
# How it was run: as §1
# [74] = biological target: GlcNAc(a1-6)Gal(b1-4)GlcNAc
# How it was run: as §1
# [75] = biological target: GlcNAc(b1-2)Gal(b1-3)GalNAc
# How it was run: as §1
binder,measurement,setting,value
B1,glycan array binding signal (z-score),[1],0.622
same,glycan array binding signal (z-score),[2],0.882
same,glycan array binding signal (z-score),[3],1.46
same,glycan array binding signal (z-score),[4],-0.032
same,glycan array binding signal (z-score),[5],-0.121
same,glycan array binding signal (z-score),[6],0.112
same,glycan array binding signal (z-score),[7],0.653
same,glycan array binding signal (z-score),[8],1.2
same,glycan array binding signal (z-score),[9],0.505
same,glycan array binding signal (z-score),[10],0.214
same,glycan array binding signal (z-score),[11],0.223
same,glycan array binding signal (z-score),[12],-0.481
same,glycan array binding signal (z-score),[13],-0.806
same,glycan array binding signal (z-score),[14],-0.062
same,glycan array binding signal (z-score),[15],0.095
same,glycan array binding signal (z-score),[16],-0.427
same,glycan array binding signal (z-score),[17],-0.422
same,glycan array binding signal (z-score),[18],-0.342
same,glycan array binding signal (z-score),[19],-0.606
same,glycan array binding signal (z-score),[20],-0.118
same,glycan array binding signal (z-score),[21],0.521
same,glycan array binding signal (z-score),[22],-0.392
same,glycan array binding signal (z-score),[23],0.287
same,glycan array binding signal (z-score),[24],-0.186
same,glycan array binding signal (z-score),[25],-0.051
same,glycan array binding signal (z-score),[26],0.16
same,glycan array binding signal (z-score),[27],-0.207
same,glycan array binding signal (z-score),[28],-0.409
same,glycan array binding signal (z-score),[29],-0.205
same,glycan array binding signal (z-score),[30],-0.477
same,glycan array binding signal (z-score),[31],-0.663
same,glycan array binding signal (z-score),[32],-0.149
same,glycan array binding signal (z-score),[33],0.19
same,glycan array binding signal (z-score),[34],0.051
same,glycan array binding signal (z-score),[35],-0.038
same,glycan array binding signal (z-score),[36],-0.204
same,glycan array binding signal (z-score),[37],-0.501
same,glycan array binding signal (z-score),[38],-0.193
same,glycan array binding signal (z-score),[39],-0.25
same,glycan array binding signal (z-score),[40],0.594
same,glycan array binding signal (z-score),[41],0.811
same,glycan array binding signal (z-score),[42],-0.333
same,glycan array binding signal (z-score),[43],-0.185
same,glycan array binding signal (z-score),[44],-0.321
same,glycan array binding signal (z-score),[45],-0.538
same,glycan array binding signal (z-score),[46],-0.541
same,glycan array binding signal (z-score),[47],-0.001
same,glycan array binding signal (z-score),[48],-0.492
same,glycan array binding signal (z-score),[49],-0.247
same,glycan array binding signal (z-score),[50],-0.02
same,glycan array binding signal (z-score),[51],-0.376
same,glycan array binding signal (z-score),[52],-0.104
same,glycan array binding signal (z-score),[53],-0.614
same,glycan array binding signal (z-score),[54],-0.709
same,glycan array binding signal (z-score),[55],-0.746
same,glycan array binding signal (z-score),[56],-0.411
same,glycan array binding signal (z-score),[57],-0.19
same,glycan array binding signal (z-score),[58],-0.402
same,glycan array binding signal (z-score),[59],-0.128
same,glycan array binding signal (z-score),[60],-0.247
same,glycan array binding signal (z-score),[61],-0.405
same,glycan array binding signal (z-score),[62],-0.406
same,glycan array binding signal (z-score),[63],-0.494
same,glycan array binding signal (z-score),[64],-0.153
same,glycan array binding signal (z-score),[65],-0.61
same,glycan array binding signal (z-score),[66],-0.264
same,glycan array binding signal (z-score),[67],0.384
same,glycan array binding signal (z-score),[68],-0.068
same,glycan array binding signal (z-score),[69],-0.218
same,glycan array binding signal (z-score),[70],0.034
same,glycan array binding signal (z-score),[71],2.46
same,glycan array binding signal (z-score),[72],2.12
same,glycan array binding signal (z-score),[73],0.43
same,glycan array binding signal (z-score),[74],-0.264
same,glycan array binding signal (z-score),[75],-0.376

# Retrieved one by one from the entries so far, five records:
binder,measurement,setting,value
B1,glycan array binding signal (z-score),[26],0.16
same,glycan array binding signal (z-score),[16],-0.427
same,glycan array binding signal (z-score),[12],-0.481
same,glycan array binding signal (z-score),[70],0.034
same,glycan array binding signal (z-score),[51],-0.376

# From the supplement of paper PMC8728848
